{
  "source": "patent US20150148256A1",
  "about": "“BIOLUMINESCENCE IMAGING-BASED SCREENING ASSAY AND INHIBITORS OF ABCG2” (THE JOHNS HOPKINS UNIVERSITY, priority 2008, published 2015)",
  "molecular_target": "T1, ABCG2 (Homo sapiens, UniProt Q9UNQ0)",
  "T1 sequence (Q9UNQ0 1-655)": "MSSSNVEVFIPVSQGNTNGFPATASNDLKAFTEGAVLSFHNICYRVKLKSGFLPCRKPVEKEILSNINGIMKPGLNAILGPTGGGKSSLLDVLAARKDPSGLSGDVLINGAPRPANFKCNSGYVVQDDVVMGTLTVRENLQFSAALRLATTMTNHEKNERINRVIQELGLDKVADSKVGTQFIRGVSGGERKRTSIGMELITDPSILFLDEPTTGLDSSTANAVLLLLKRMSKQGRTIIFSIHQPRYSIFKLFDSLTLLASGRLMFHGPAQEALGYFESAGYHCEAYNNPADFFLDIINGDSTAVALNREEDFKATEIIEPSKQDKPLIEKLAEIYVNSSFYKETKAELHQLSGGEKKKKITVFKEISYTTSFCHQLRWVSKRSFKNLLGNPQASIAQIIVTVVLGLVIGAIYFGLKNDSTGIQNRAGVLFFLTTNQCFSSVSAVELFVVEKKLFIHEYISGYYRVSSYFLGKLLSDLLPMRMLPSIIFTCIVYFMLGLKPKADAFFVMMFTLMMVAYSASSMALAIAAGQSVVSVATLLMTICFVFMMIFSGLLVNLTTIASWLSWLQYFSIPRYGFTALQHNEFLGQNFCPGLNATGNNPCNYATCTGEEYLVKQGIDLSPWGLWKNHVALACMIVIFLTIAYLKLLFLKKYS",
  "settings": "40 min, 17 μM",
  "description": "HEK293/ABCG2/fLuc cells were plated into 96-well plates at a density of 4×10^4 cells/100 μL per well and were allowed to attach overnight. The following day, 10 μL of each compound or the control solvent was transferred from a compound library in a 96-well, high-throughput format into the wells using a multichannel pipette. […] Images were taken every 5 minutes for ˜1 h. Light output from each well was quantified at the 40 min time point after initiation of imaging, and the signal-to-background (S/B) ratio of the light output from each compound divided by that from the control well was calculated. This S/B ratio serves as an indicator of the potency of ABCG2 inhibition, the mechanism by which BLI signal is enhanced.\nImages were taken every 5 min for ˜1 h, and light output from each well at the 40 min time point was chosen for quantification. The SB ratio of the light output from each compound divided by that from the control well was calculated. This ratio was used as an indicator of the potency of ABCG2 inhibition, the mechanism by which BLI signal is enhanced.\nThe BLI signal-enhancing effect of selected ABCG2 inhibitors was evaluated within the range of 0.001 μM-100 μM, with HEK293/ABCG2/fLuc cells and 50 μg/mL D-luciferin. The data obtained at 40 min after imaging commencement were chosen arbitrarily to be plotted (FIG. 3).",
  "data": [
    {"smiles": "CCCNCC(O)COc1ccccc1C(=O)CCc1ccccc1", "note": "(stereo not shown) [propafenone]", "values": [
      {"measurement": "Fold (BLI enhancement, S/B ratio over control)", "value": 2.4, "unit": "fold"}
    ]}
  ]
}
